Source: publication PMC4487770
These are yes or no findings as the source states them, for the method shown. In cells and extracts the contact can be indirect. Some entries that bind do so weakly or less than the wild type.

Sequences of proteins named here, by UniProt entry; tags and fusion partners are left off.
UniProt Q9JK25: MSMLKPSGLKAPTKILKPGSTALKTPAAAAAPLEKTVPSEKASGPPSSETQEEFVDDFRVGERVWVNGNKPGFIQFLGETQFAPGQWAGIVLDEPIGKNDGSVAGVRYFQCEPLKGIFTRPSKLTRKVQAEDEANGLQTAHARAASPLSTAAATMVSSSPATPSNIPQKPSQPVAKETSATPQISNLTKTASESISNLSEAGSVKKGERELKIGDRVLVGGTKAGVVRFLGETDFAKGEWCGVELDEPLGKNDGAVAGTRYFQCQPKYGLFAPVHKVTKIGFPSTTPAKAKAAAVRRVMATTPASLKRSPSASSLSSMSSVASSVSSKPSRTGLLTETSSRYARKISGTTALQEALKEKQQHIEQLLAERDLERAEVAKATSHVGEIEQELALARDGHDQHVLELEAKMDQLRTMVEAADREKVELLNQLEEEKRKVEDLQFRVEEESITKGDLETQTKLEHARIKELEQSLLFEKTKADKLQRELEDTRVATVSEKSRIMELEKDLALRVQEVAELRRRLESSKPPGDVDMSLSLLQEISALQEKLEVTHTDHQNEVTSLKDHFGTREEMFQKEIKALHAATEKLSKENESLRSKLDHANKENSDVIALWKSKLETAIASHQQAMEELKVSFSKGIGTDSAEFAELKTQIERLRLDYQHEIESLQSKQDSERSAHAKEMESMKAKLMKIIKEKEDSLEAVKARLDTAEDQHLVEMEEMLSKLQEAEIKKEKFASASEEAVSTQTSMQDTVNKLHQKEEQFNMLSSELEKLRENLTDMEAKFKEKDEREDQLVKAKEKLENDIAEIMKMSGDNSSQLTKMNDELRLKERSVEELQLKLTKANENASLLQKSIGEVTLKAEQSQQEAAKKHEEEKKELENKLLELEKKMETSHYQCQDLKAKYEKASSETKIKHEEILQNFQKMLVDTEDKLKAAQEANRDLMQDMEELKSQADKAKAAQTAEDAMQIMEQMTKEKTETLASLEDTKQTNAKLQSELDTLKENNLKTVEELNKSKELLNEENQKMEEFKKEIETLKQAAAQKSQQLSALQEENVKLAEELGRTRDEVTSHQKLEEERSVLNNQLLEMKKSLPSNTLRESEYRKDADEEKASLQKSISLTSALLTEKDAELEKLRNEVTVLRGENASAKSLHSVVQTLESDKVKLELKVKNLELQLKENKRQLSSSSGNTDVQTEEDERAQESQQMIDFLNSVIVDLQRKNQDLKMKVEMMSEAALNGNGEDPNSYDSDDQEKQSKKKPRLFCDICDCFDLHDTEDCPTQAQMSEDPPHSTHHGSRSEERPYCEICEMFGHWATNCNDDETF
UniProt Q15691: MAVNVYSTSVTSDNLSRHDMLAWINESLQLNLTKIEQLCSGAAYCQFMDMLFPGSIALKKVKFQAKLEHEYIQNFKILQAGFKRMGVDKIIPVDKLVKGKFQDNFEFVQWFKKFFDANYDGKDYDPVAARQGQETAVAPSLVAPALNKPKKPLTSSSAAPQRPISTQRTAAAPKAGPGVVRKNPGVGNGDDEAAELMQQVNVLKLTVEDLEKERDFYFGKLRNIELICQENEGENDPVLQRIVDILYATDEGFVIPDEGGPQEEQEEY
UniProt Q14573: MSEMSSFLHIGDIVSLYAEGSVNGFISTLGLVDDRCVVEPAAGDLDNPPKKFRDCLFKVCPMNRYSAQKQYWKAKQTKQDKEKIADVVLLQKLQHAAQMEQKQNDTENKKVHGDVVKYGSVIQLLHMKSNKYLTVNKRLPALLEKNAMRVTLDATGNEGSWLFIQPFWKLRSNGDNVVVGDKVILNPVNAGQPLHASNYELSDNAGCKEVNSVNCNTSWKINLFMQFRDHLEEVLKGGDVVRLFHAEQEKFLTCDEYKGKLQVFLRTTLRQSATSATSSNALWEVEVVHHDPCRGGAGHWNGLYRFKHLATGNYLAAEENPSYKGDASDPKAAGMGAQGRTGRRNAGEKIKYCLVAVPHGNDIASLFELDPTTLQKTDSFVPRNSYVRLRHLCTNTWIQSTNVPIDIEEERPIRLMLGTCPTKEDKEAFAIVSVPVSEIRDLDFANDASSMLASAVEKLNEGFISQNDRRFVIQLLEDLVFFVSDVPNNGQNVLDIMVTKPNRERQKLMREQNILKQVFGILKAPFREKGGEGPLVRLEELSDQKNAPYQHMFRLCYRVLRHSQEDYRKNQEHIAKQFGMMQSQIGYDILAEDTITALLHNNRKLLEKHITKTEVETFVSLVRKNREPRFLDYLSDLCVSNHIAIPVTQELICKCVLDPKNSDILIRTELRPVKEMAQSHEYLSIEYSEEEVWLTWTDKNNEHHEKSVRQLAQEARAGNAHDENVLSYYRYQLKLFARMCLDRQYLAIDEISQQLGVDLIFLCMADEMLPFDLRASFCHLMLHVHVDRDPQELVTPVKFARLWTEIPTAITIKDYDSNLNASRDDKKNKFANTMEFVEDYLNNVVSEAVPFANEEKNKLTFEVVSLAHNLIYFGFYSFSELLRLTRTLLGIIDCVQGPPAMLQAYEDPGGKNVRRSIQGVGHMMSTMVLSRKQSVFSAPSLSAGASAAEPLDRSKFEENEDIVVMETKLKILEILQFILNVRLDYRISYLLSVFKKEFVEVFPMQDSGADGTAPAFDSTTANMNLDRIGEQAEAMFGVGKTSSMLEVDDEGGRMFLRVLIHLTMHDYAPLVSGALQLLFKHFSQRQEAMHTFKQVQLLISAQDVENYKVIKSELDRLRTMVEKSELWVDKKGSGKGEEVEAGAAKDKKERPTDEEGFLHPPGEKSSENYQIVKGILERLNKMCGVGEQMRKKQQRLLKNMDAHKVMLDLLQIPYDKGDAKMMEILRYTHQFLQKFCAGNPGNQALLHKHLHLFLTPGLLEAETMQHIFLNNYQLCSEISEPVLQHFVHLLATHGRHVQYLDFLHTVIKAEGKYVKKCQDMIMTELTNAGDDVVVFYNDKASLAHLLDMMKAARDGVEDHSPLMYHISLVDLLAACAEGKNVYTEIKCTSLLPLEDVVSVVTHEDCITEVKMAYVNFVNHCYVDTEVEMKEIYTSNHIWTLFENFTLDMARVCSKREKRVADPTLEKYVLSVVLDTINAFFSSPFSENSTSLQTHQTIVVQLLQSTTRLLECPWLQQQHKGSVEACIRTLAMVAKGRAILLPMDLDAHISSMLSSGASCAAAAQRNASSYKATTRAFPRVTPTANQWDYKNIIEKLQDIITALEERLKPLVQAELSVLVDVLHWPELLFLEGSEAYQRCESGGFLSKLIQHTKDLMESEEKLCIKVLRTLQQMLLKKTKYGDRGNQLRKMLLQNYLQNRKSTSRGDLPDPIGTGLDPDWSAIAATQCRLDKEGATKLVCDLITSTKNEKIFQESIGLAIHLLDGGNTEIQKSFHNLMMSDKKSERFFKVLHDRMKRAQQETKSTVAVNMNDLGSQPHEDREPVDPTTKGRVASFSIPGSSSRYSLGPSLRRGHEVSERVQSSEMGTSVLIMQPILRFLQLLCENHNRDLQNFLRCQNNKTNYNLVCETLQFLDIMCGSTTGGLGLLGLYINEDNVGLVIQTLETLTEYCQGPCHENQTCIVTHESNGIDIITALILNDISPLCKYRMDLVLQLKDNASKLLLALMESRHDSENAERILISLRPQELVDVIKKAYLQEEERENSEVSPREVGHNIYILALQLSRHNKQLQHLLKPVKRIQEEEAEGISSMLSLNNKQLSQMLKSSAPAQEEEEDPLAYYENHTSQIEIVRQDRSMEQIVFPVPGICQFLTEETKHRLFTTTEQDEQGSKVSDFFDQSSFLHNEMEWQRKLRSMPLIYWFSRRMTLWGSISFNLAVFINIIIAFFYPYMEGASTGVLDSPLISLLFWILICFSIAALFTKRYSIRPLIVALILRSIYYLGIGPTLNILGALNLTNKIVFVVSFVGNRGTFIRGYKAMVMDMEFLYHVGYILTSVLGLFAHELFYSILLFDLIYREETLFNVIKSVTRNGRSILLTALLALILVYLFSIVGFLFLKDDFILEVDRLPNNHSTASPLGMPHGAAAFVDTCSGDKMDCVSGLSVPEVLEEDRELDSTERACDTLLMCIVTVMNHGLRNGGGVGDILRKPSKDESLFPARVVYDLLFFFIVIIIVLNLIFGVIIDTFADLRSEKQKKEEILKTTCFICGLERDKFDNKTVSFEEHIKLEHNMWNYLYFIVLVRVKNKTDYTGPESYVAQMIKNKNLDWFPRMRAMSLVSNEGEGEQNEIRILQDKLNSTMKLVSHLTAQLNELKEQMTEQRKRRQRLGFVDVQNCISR

Experiments:
[1] = molecular target: mRFP-(rat)CLIP-170 (expressed in HLMVECs) (rat) (UniProt Q9JK25); test: FRET or BRET; intact HLMVECs expressing GFP-IP3R3 (donor) with EB3-mRFP or mRFP-CLIP-170 (acceptor); quenching of GFP at microtubule tips and recovery of donor fluorescence after focal acceptor photobleaching
[2] = molecular target: (His6)-EB1, end-binding protein 1 (UniProt Q15691); test: pull-down; (His6)-EB proteins expressed in bacteria, covalently bound to Ni-NTA resin; lysates from HEK cells expressing GFP-tagged proteins; western blot for GFP; only the target purified

| binding [1] | binding [2] | Substance |
| --- | --- | --- |
| no binding | – | GFP-IP3R3 (expressed in HLMVECs) (from UniProt Q14573 1-2671) (receptor) |
| – | binds | GFP-IP3R3, inositol 1,4,5-trisphosphate receptor type 3 (HEK cell lysate) (from UniProt Q14573 1-2671) |
